# Cleaved PARP after 72 h of treatment

Source: doi:10.1371/journal.pone.0140310, primary screening data, rounded.

Drugs:
NVP-BEZ235, 0.02 µM: Cn1c(=O)n(-c2ccc(C(C)(C)C#N)cc2)c2c3cc(-c4cnc5ccccc5c4)ccc3ncc21
nilotinib, 1 µM: Cc1cn(-c2cc(NC(=O)c3ccc(C)c(Nc4nccc(-c5cccnc5)n4)c3)cc(C(F)(F)F)c2)cn1
MK-2206, 2 µM: NC1(c2ccc(-c3nc4ccn5c(=O)[nH]nc5c4cc3-c3ccccc3)cc2)CCC1
lenalidomide, 5 µM: Nc1cccc2c1CN(C1CCC(=O)NC1=O)C2=O (configuration not stated)
CP-690550, 5 µM: C[C@@H]1CCN(C(=O)CC#N)C[C@@H]1N(C)c1ncnc2[nH]ccc12
GSK650394, 0.8 µM: O=C(O)c1ccc(-c2c[nH]c3ncc(-c4ccccc4)cc23)cc1C1CCCC1
IMD-0354, 0.08 µM: O=C(Nc1cc(C(F)(F)F)cc(C(F)(F)F)c1)c1cc(Cl)ccc1O
BMS-536924, 1 µM: Cc1cc(N2CCOCC2)cc2[nH]c(-c3c(NC[C@@H](O)c4cccc(Cl)c4)cc[nH]c3=O)nc12
GSK0660, 5 µM: COC(=O)c1sccc1S(=O)(=O)Nc1ccc(Nc2ccccc2)cc1OC
tozasertib, 0.03 µM: Cc1cc(Nc2cc(N3CCN(C)CC3)nc(Sc3ccc(NC(=O)C4CC4)cc3)n2)n[nH]1

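Human melanoma cells were exposed to a pair of drugs for 72 h in 1,536-well plates and read by automated microscopy after fixing and staining. The read-out is the fraction of cleaved-PARP-positive nuclei, in % of that fraction in the DMSO control; 200 means twice the control level of this apoptosis marker. Concentrations were fixed for each drug; these are the higher of two levels. The file gives one value for each pair and line, without errors, so small differences may be noise. The marker varies much from line to line, for technical or biological reasons.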
Only some of the drugs and lines screened are listed, without regard to their results.

For lenalidomide + BMS-536924 the values were WM1716: 120; IST-MEL1: 119. Results for GSK0660 + MK-2206 are WM1716: 153; IST-MEL1: 106. With nilotinib + BMS-536924 the screen read WM1716: 63.6; IST-MEL1: 65.6. Results for GSK0660 + NVP-BEZ235 are WM1716: 33.1; IST-MEL1: 159.

With GSK0660 + GSK650394 the screen read WM1716: 59.5; IST-MEL1: 75.9. GSK650394 + CP-690550 gave WM1716: 23.4; IST-MEL1: 271. nilotinib + CP-690550 gave WM1716: 137; IST-MEL1: 126. Results for GSK650394 + lenalidomide are WM1716: 33.1; IST-MEL1: 74.5.

Results for nilotinib + NVP-BEZ235 are WM1716: 145; IST-MEL1: 49.7. Results for GSK0660 + nilotinib are WM1716: 92.0; IST-MEL1: 35.7. With MK-2206 + IMD-0354 the screen read WM1716: 52.2; IST-MEL1: 134. For NVP-BEZ235 + lenalidomide the values were WM1716: 64.6; IST-MEL1: 67.9.

For IMD-0354 + GSK650394 the values were WM1716: 105; IST-MEL1: 82.3. With IMD-0354 + BMS-536924 the screen read WM1716: 93.0; IST-MEL1: 84.0. Results for BMS-536924 + GSK650394 are WM1716: 249; IST-MEL1: 332. Results for tozasertib + GSK650394 are WM1716: 111; IST-MEL1: 282.

For CP-690550 + lenalidomide the values were WM1716: 81.4; IST-MEL1: 107. For GSK0660 + CP-690550 the values were WM1716: 66.3; IST-MEL1: 109. Results for tozasertib + lenalidomide are WM1716: 91.7; IST-MEL1: 253. For NVP-BEZ235 + tozasertib the values were WM1716: 117; IST-MEL1: 134.

For nilotinib + MK-2206 the values were WM1716: 245; IST-MEL1: 169. CP-690550 + NVP-BEZ235 gave WM1716: 58.6; IST-MEL1: 67.0. IMD-0354 + nilotinib gave WM1716: 64.8; IST-MEL1: 73.8. With NVP-BEZ235 + MK-2206 the screen read WM1716: 205; IST-MEL1: 379.

With BMS-536924 + CP-690550 the screen read WM1716: 112; IST-MEL1: 32.0. BMS-536924 + NVP-BEZ235 gave WM1716: 140; IST-MEL1: 182. Results for nilotinib + lenalidomide are WM1716: 52.2; IST-MEL1: 166. For nilotinib + GSK650394 the values were WM1716: 114; IST-MEL1: 50.0.

GSK0660 + lenalidomide gave WM1716: 32.5; IST-MEL1: 236. For tozasertib + GSK0660 the values were WM1716: 126; IST-MEL1: 90.2. Results for IMD-0354 + tozasertib are WM1716: 80.3; IST-MEL1: 85.4. BMS-536924 + GSK0660 gave WM1716: 308; IST-MEL1: 29.4.

GSK650394 + NVP-BEZ235 gave WM1716: 206; IST-MEL1: 196. IMD-0354 + CP-690550 gave WM1716: 94.8; IST-MEL1: 63.2. For CP-690550 + tozasertib the values were WM1716: 84.8; IST-MEL1: 107. Results for CP-690550 + MK-2206 are WM1716: 95.0; IST-MEL1: 287.

IMD-0354 + GSK0660 gave WM1716: 89.1; IST-MEL1: 126. With GSK650394 + MK-2206 the screen read WM1716: 81.8; IST-MEL1: 63.1.

The last 4 entries again:

{"combination": "CP-690550 + tozasertib", "WM1716": 84.8, "IST-MEL1": 107}
{"combination": "CP-690550 + MK-2206", "WM1716": 95.0, "IST-MEL1": 287}
{"combination": "IMD-0354 + GSK0660", "WM1716": 89.1, "IST-MEL1": 126}
{"combination": "GSK650394 + MK-2206", "WM1716": 81.8, "IST-MEL1": 63.1}